Tested on: LS174T cells
Experiment: RNA-Seq transcriptomic assay
Format: cell-based
Details: 5 μM, 24 h, Qvalue ≤0.05 and |log 2FC|≥1

O=c1c(-c2ccc(Cl)c(Cl)c2)coc2cc(OCCN3CCN(CCO)CC3)ccc12 [DBI-6, 3-(3,4-dichlorophenyl)-7-(2-(4-(2-hydroxyethyl)piperazin-1-yl)ethoxy)-4H-chromen-4-one]
genes down-regulated: 2772 | genes up-regulated: 2799
